Laboratory results taken from publication PMC4863600.
No constants are given. Whether binding was seen depends on the method and setting. In cells and extracts the contact can be indirect. Some binding calls cover weakened binding; strength is not graded here. Tags and fused reporters may be left off the sequences shown. Values belong to the binder of their own block, whether it stands above or below them.

Legend:
[1] = biological target: T1, PprA::HA fusion protein (D. radiodurans) (UniProt O32504); assay: co-IP; as a2 but nonirradiated D. radiodurans GY14697 (pprA::HA gyrA::SPA) cells, in which PprA::HA is at its basal level
T1 sequence: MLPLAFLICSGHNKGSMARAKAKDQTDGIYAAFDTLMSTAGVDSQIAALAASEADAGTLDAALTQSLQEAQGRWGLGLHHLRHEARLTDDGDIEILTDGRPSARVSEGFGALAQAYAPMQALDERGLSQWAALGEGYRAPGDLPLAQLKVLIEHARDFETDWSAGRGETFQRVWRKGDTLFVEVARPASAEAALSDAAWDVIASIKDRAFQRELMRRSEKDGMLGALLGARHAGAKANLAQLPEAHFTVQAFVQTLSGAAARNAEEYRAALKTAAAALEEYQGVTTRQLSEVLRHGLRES

[2] = biological target: T1, PprA::HA fusion protein (D. radiodurans); assay: co-IP; D. radiodurans GY14697 (pprA::HA gyrA::SPA) exposed to 3.8 kGy gamma radiation and grown 110 min, fixed with 2% formaldehyde; anti-HA immunoprecipitation with anti-FLAG blot, and anti-FLAG immunoprecipitation with anti-HA blot
[3] = biological target: T2, GyrA::SPA protein (D. radiodurans) (UniProt Q9RT53); assay: as above
T2 sequence: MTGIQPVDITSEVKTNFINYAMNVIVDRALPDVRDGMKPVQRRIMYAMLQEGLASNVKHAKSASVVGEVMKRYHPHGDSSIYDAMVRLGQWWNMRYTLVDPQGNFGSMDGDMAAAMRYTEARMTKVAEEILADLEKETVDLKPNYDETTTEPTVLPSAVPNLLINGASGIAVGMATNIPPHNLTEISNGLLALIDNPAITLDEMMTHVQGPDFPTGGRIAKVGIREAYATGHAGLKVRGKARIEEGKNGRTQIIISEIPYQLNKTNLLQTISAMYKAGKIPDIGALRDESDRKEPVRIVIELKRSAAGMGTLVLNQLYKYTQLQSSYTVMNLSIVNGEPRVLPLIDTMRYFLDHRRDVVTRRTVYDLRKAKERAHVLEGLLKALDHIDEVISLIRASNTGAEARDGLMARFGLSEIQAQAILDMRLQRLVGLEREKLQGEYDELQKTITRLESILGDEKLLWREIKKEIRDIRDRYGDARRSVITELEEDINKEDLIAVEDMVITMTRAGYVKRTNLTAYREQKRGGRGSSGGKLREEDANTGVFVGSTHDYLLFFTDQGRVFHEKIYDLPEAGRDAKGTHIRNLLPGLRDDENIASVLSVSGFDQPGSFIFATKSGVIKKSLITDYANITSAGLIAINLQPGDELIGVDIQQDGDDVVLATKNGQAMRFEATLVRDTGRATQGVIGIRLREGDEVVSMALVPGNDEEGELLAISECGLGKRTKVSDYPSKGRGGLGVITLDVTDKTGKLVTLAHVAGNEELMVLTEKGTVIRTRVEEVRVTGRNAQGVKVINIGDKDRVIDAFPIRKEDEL

binding [2]: binds
B1: GyrA::SPA protein (protein, UniProt Q9RT53 1-812)
chain: T2 sequence
binding [1]: no binding (condition: nonirradiated cells)

binding [3]: binds
B2: PprA::HA fusion protein (protein, UniProt O32504 1-300)
chain: T1 sequence
